From PMC7707610
No constants are given. Whether binding was seen depends on the method and setting.

Target: soluble recombinant Der p 2 (rDer p 2) (Dermatophagoides pteronyssinus) (UniProt P49278)
Assay: dynamic light scattering; purified rDer p 2-His in solution; conditions of the measurement not told; both purified

- binding: no binding
B1: soluble recombinant Der p 2 (rDer p 2) (protein, UniProt P49278 18-146)
chain: DQVDVKDCANHEIKKVLVPGCHGSEPCIIHRGKPFQLEAVFEANQNTKTAKIEIKASIDGLEVDVPGIDPNACHYMKCPLVKGQQYDIKYTWNVPKIAPKSENVVVTVKVMGDDGVLACAIATHAKIRD
